Results taken from patent publication US8969413B2.

Columns and labels:
[1] = system: GABAA receptor; details: 1 mM cold GABA
[2] = system: cortical astrocytes; details: read-out: astrocyte uptake IC50; data from Bolvig et al. 1999; cited from earlier work

Q: For `NCCCC(=O)O` [GABA, γ-aminobutyric acid], which “inhibition of radioligand binding at GABAA receptors” value [1] is on record?
A: The value was “inhibited radioligand binding as expected”.

Q: What about the IC50 [2] of the same compound?
A: The IC50 was 32 µM.
